Results are given in words; binding and its absence hold for the method and conditions named. Binding can be weak; no strength is given.
Target: T1, Symplekin (residues 19-351) (Drosophila) (UniProt Q8MSU4)
T1 sequence: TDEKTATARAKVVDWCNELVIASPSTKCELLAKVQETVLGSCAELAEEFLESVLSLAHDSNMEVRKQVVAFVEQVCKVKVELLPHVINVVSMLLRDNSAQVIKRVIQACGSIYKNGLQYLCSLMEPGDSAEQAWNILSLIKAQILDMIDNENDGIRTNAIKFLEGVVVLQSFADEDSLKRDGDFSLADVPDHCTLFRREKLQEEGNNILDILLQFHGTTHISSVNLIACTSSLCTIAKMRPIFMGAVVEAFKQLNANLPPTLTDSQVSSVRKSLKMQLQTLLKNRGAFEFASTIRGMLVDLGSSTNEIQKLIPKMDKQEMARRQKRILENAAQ
Experiment: SEC

By UniProt entry, the sequences of proteins in these tests, tags left out. Where a name states a change or a piece, a line headed by the entry shows the natural chain unless it says otherwise.
UniProt Q9VWE4: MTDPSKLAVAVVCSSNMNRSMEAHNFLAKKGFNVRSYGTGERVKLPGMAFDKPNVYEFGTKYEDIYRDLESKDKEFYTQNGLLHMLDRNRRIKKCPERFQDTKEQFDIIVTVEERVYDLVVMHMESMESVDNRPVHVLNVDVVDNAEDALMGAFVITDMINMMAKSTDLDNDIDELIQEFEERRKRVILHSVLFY

Substance | binding
mutant Drosophila Ssu72 (C13D/D144N) (from UniProt Q9VWE4) (enzyme) | binds
Drosophila Ssu72 (1-195) (from UniProt Q9VWE4) (enzyme) | binds
